These are yes or no findings as the source states them, for the method shown. Some results given as binding are weak or reduced against the parent protein; the word gives no strength. Tags and fused reporters may be left off the sequences shown.
Biological target: T1, full-length KGD from Mycobacterium smegmatis (Mycobacterium smegmatis) (UniProt A0R2B1)
T1 sequence: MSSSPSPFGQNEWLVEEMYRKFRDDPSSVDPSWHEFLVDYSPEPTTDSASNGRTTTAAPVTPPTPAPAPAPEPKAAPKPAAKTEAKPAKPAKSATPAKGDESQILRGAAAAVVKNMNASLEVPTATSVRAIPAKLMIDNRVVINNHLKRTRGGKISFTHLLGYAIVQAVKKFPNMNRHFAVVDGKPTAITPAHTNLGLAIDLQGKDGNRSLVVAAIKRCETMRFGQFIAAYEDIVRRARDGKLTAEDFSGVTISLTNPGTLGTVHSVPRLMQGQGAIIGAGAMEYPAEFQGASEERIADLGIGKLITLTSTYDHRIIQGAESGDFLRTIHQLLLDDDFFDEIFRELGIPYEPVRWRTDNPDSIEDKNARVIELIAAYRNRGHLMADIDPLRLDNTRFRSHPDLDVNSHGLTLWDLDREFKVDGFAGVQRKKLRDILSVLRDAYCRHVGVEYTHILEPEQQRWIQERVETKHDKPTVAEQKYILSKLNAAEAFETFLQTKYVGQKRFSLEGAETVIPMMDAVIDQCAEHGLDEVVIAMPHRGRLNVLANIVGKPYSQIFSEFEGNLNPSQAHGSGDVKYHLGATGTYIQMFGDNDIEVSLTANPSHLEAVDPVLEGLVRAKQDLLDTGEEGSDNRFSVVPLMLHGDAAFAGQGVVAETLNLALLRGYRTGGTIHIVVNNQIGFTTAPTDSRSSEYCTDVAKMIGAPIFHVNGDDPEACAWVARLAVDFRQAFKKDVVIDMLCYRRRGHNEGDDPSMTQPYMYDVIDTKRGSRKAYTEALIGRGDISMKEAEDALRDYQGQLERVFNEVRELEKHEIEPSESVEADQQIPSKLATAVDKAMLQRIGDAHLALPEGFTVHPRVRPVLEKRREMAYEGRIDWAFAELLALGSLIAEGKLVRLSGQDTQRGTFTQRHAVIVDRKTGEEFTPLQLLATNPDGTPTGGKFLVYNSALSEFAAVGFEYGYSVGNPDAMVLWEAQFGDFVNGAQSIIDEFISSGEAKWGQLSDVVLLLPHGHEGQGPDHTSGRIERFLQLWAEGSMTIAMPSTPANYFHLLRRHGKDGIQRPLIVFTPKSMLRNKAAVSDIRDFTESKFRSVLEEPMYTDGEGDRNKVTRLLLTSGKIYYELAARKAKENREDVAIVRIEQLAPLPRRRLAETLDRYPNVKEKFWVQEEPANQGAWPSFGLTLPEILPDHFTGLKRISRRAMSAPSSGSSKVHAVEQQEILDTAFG
Experiment: crystal structure

B1: M. smegmatis GarA (protein, UniProt A0QYG2 1-158)
chain: MTDKDSNLGADQSEDVTVETTSVFRADFLNELDAPAAAGTEGAVSGVEGLPSGSALLVVKRGPNAGSRFLLDQPTTSAGRHPDSDIFLDDVTVSRRHAEFRLEGGEFQVVDVGSLNGTYVNREPVDSAVLANGDEVQIGKFRLVFLTGPKSDDSGSNA
binding: binds
